Measurements as given in the supplement of paper PMC10849652.
Some of the results follow.

The chains behind the UniProt entries cited, without tags or fusion partners. Where a name states a change or a piece, a line headed by the entry shows the natural chain unless it says otherwise.
UniProt Q9BSK2: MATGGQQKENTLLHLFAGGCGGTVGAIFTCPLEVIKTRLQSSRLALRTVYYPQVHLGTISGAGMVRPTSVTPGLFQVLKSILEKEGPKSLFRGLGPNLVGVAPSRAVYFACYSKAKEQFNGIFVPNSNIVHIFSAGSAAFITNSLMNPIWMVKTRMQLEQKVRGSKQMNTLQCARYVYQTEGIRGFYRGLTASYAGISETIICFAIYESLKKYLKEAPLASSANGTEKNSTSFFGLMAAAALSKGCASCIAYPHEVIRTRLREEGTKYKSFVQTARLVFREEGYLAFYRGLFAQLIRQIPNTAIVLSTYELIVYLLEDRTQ
UniProt Q9C0K1: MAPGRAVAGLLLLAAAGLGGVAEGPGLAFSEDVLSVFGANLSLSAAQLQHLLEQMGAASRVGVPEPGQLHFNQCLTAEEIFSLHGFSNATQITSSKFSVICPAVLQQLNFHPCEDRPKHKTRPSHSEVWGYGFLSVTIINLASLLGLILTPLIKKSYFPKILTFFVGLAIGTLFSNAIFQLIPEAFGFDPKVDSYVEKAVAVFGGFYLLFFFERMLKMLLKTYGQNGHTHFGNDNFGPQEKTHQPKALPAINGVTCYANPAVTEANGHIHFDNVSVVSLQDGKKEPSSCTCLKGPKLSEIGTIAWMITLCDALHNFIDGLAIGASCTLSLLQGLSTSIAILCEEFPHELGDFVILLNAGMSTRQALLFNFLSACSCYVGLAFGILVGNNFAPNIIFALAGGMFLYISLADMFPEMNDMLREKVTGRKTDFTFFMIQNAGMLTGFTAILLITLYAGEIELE
UniProt Q96A29: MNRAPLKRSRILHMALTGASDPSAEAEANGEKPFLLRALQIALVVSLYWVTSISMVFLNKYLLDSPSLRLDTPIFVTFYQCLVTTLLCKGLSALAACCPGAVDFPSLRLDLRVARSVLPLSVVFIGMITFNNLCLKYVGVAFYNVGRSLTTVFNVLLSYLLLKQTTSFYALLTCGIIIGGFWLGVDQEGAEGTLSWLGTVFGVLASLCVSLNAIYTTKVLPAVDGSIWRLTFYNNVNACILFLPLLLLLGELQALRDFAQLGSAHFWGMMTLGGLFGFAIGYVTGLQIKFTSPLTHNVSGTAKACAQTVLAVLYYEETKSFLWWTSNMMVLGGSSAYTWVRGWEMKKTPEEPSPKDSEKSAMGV
UniProt Q9UPY5: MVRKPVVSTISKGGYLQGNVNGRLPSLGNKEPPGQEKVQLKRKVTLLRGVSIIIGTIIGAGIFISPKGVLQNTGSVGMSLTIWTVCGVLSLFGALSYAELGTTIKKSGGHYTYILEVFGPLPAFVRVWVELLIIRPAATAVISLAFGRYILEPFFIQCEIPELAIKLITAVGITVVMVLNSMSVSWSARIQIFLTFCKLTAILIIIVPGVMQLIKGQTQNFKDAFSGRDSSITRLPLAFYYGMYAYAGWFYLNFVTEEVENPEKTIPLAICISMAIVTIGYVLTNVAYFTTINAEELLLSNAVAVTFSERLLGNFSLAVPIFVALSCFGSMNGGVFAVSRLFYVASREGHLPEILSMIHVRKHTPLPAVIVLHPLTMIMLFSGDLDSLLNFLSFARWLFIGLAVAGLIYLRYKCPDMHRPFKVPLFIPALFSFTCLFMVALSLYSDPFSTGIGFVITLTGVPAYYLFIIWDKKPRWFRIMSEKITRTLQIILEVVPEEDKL
UniProt Q96H78: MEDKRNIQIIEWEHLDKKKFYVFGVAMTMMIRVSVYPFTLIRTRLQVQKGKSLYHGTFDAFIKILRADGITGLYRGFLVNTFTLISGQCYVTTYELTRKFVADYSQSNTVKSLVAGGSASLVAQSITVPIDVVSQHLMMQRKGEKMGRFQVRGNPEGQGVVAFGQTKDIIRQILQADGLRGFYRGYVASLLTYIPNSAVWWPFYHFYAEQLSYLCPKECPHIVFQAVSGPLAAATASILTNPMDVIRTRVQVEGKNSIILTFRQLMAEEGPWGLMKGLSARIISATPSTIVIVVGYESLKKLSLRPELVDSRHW
UniProt P78383: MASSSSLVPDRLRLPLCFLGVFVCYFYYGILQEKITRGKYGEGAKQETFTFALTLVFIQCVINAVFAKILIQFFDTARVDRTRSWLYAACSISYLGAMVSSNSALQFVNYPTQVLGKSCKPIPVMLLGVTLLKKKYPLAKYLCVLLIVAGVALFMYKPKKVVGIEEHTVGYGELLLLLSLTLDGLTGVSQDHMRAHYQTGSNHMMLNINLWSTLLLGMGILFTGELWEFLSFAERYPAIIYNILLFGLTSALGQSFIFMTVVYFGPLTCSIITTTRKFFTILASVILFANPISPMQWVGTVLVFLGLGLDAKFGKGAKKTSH
UniProt Q8N1S5: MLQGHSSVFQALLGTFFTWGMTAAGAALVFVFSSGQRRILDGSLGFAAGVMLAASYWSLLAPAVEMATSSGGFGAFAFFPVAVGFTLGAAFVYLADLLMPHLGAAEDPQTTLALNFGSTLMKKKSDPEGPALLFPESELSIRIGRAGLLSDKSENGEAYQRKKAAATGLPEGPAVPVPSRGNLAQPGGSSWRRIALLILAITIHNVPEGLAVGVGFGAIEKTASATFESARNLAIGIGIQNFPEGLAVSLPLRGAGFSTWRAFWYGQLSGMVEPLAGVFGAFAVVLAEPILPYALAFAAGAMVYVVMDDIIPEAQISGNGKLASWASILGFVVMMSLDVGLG
UniProt Q9HAB3: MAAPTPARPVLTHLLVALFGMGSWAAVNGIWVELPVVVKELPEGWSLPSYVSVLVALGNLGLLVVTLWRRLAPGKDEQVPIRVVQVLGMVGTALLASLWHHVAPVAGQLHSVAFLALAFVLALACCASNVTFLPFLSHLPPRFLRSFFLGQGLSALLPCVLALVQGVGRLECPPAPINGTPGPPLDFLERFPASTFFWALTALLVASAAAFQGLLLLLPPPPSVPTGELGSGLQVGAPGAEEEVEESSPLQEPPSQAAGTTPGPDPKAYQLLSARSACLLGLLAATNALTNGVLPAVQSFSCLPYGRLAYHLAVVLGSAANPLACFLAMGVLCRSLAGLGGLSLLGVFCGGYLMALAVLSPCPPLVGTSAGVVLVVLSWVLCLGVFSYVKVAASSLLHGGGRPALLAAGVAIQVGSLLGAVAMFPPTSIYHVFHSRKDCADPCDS
UniProt Q9HC21: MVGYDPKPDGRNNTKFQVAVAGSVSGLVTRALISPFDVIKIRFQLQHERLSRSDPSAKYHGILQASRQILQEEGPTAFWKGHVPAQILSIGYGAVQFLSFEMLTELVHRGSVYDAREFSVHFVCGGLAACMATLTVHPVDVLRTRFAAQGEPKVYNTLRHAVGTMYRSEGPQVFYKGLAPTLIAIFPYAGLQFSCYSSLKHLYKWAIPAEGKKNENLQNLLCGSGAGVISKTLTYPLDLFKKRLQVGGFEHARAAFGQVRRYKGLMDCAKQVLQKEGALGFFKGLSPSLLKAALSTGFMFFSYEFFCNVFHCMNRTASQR
UniProt Q6J4K2: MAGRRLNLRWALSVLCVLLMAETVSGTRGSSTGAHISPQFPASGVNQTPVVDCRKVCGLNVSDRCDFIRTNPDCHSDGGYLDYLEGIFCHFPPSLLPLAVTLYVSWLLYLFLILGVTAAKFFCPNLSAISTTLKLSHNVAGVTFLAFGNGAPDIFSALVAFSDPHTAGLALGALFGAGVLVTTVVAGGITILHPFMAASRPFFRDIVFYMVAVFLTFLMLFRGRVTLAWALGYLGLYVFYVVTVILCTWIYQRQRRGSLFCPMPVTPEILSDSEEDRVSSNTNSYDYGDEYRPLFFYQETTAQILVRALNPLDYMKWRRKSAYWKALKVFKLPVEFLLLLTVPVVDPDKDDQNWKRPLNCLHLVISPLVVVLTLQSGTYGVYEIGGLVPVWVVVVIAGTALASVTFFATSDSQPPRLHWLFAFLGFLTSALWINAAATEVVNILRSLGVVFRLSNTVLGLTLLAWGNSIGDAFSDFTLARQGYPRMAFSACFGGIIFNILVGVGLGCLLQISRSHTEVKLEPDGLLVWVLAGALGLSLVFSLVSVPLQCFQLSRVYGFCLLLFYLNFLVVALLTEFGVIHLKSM
UniProt P14672: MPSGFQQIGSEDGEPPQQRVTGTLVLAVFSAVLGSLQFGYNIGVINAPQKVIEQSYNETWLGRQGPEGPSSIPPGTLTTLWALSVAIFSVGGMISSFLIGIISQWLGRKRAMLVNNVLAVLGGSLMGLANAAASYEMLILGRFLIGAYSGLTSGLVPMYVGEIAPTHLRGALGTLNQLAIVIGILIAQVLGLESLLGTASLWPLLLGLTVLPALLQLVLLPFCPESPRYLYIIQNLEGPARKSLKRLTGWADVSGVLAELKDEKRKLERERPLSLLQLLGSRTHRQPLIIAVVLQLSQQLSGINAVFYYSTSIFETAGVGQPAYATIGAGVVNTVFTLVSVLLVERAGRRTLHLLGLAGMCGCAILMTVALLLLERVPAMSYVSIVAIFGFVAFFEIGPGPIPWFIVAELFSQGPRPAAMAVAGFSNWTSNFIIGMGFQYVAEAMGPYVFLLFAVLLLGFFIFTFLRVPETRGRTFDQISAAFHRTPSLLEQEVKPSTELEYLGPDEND
UniProt Q8WU79: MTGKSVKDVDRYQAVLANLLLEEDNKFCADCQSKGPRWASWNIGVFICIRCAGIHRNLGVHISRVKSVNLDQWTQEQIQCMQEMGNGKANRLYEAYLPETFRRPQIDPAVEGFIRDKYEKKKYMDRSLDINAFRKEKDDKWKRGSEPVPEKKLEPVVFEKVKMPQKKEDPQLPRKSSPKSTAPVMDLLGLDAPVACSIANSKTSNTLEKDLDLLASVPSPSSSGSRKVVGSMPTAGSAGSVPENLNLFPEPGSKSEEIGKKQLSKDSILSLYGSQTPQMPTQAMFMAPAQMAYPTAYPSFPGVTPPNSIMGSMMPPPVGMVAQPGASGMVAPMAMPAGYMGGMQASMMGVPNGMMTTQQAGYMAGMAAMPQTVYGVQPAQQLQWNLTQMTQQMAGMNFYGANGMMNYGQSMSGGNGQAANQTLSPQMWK
UniProt Q9NVC3: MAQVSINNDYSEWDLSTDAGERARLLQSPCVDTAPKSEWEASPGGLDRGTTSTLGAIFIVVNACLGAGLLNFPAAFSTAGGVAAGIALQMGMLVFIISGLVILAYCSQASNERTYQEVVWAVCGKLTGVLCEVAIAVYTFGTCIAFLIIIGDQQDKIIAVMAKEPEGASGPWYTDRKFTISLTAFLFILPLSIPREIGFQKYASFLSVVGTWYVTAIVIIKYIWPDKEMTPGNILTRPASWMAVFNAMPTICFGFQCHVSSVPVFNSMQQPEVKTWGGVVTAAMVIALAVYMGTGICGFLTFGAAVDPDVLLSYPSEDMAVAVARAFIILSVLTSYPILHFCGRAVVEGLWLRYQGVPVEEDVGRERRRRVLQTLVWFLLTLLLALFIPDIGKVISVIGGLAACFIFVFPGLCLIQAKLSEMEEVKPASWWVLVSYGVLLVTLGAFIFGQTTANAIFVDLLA
UniProt P12235: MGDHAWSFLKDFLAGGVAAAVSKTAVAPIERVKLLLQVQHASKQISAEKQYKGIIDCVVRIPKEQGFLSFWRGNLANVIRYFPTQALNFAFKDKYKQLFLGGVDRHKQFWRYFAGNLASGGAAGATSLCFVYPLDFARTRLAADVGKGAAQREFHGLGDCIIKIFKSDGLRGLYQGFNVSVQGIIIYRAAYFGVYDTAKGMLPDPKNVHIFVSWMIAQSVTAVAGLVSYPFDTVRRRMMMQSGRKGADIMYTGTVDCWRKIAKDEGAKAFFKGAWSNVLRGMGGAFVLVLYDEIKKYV
UniProt Q6NXT4: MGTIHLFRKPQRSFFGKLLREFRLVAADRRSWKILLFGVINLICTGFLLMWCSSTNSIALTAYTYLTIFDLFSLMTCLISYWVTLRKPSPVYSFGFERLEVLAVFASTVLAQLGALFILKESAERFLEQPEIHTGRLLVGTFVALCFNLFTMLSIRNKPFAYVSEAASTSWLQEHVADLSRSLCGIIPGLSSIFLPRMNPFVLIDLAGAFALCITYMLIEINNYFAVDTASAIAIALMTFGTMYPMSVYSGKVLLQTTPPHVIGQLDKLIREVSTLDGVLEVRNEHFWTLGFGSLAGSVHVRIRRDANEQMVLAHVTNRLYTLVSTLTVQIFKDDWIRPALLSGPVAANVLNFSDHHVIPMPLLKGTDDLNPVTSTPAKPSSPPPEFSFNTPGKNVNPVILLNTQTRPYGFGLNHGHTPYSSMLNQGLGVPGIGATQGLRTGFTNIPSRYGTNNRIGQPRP
UniProt Q6P1K1: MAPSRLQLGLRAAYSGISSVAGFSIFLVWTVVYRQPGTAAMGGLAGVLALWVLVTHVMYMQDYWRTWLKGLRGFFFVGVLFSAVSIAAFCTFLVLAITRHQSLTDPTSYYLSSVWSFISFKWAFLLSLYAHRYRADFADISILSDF

Experiments:
Experiment in all cases: log2 fold change, soluble protein after heating vs DMSO (PISA); higher = thermal stabilisation; K562 lysate, 10 uM; active = over 0.2 and 3.5 SD of the protein, either way, in both replicates (recomputed)
vemurafenib = compound: CCCS(=O)(=O)Nc1ccc(F)c(C(=O)c2c[nH]c3ncc(-c4ccc(Cl)cc4)cc23)c1F [vemurafenib]
Method in brief: (§1)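 K562 pellets were dounce-homogenised in PBS pH 7.4 with 1 mM MgCl2, and the crude extract at 1 mg/mL protein was treated with 10 μM compound for 30 min. Aliquots were heated for 3 min across 48°C-58°C, pooled, and brought to 0.5% NP-40 at 4°C; soluble protein was the supernatant after 21,000xg for 90 min. Soluble protein was quantified by TMTpro 16plex LC-MS/MS with channel sums equalised, and reported as log2 fold change in thermal stability against DMSO controls, with values from duplicates.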

[1] = compound: CCCS(=O)(=O)Nc1ccc(F)c(C(=O)c2c[nH]c3ncc(Cl)cc23)c1F
Method in brief: as §1

barasertib = compound: CCN(CCCOc1ccc2c(Nc3cc(CC(=O)Nc4cccc(F)c4)[nH]n3)ncnc2c1)CCOP(=O)(O)O [barasertib]
Method in brief: as §1

[2] = compound: CC[C@@H]1C(=O)N(C)c2cnc(Nc3ccc(C(=O)NC4CCN(C)CC4)cc3OC)nc2N1C1CCCC1
Method in brief: as §1

volasertib = compound: CC[C@@H]1C(=O)N(C)c2cnc(Nc3ccc(C(=O)N[C@H]4CC[C@H](N5CCN(CC6CC6)CC5)CC4)cc3OC)nc2N1C(C)C [volasertib]
Method in brief: as §1

[3] = compound: CCn1c(C(=O)N(C2CC2)C2CC2)cc2c3c(ncn3C)c(Nc3cc(C)n(C)n3)nc21
Method in brief: as §1

[4] = compound: CCn1cc(-c2ccnc3[nH]c(-c4cccc(CN(C)C)c4)cc23)c(-c2ccc(NC(=O)N(C)C)cc2)n1
Method in brief: as §1

[5] = compound: CN1CCC(CNc2ccc3ncc(-c4cccc(OC(F)(F)F)c4)n3n2)CC1
Method in brief: as §1

saracatinib = compound: CN1CCN(CCOc2cc(OC3CCOCC3)c3c(Nc4c(Cl)ccc5c4OCO5)ncnc3c2)CC1 [saracatinib]
Method in brief: as §1

sotrastaurin = compound: CN1CCN(c2nc(C3=C(c4c[nH]c5ccccc45)C(=O)NC3=O)c3ccccc3n2)CC1 [sotrastaurin]
Method in brief: as §1

alvocidib = compound: CN1CC[C@H](c2c(O)cc(O)c3c(=O)cc(-c4ccccc4Cl)oc23)[C@H](O)C1 [alvocidib]
Method in brief: as §1

Tubastatin A = compound: CN1CCc2c(c3ccccc3n2Cc2ccc(C(=O)NO)cc2)C1 [Tubastatin A]
Method in brief: as §1

[6] = compound: CNC(=O)C1=CC=CC=C1NC2=NC(=NC=C2Cl)NC3=C(C=C(C=C3)N4CCOCC4)OC
Method in brief: as §1

defactinib = compound: CNC(=O)c1ccc(Nc2ncc(C(F)(F)F)c(NCc3nccnc3N(C)S(C)(=O)=O)n2)cc1 [defactinib]
Method in brief: as §1

[7] = compound: CNc1nc(-c2ccc3c(N)n[nH]c3c2)cc(N2C[C@@H](C(=O)NC3CCCCC3)CC[C@H]2C)n1
Method in brief: as §1

encorafenib = compound: COC(=O)N[C@@H](C)CNc1nccc(-c2cn(C(C)C)nc2-c2cc(Cl)cc(NS(C)(=O)=O)c2F)n1 [encorafenib]
Method in brief: as §1

[8] = compound: COC(=O)[C@H](CCSC)NC(=O)C1=C(C=C(C=C1)NC[C@H](CS)N)C2=CC=CC=C2
Method in brief: as §1

alisertib = compound: COc1cc(Nc2ncc3c(n2)-c2ccc(Cl)cc2C(c2c(F)cccc2OC)=NC3)ccc1C(=O)O [alisertib]
Method in brief: as §1

[9] = compound: COc1cc2nc(-c3cc(F)ccc3O)nc(N[C@@H]3CNC[C@H]3C(C)(C)O)c2cc1OC
Method in brief: as §1

gefitinib = compound: COc1cc2ncnc(Nc3ccc(F)c(Cl)c3)c2cc1OCCCN1CCOCC1 [gefitinib]
Method in brief: as §1

Target	log2 fold change (vemurafenib)	log2 fold change [1]	log2 fold change (barasertib)	log2 fold change [2]	log2 fold change (volasertib)	log2 fold change [3]	log2 fold change [4]	log2 fold change [5]	log2 fold change (saracatinib)	log2 fold change (sotrastaurin)	log2 fold change (alvocidib)	log2 fold change (Tubastatin A)	log2 fold change [6]	log2 fold change (defactinib)	log2 fold change [7]	log2 fold change (encorafenib)	log2 fold change [8]	log2 fold change (alisertib)	log2 fold change [9]	log2 fold change (gefitinib)
SLC25A33 (UniProt Q9BSK2)	inactive: -0.034	inactive: -0.011	inactive: -0.06	inactive: -0.003	inactive: 0.025	inactive: -0.063	inactive: -0.072	inactive: 0.045	inactive: 0.003	inactive: 0.036	inactive: 0.032	inactive: 0.038	inactive: 0.122	inactive: -0.066	inactive: -0.085	inactive: -0.097	inactive: 0.089	inactive: 0.038	inactive: 0.009	inactive: -0.125
SLC39A8 (UniProt Q9C0K1)	inactive: -0.056	inactive: -0.037		inactive: 0.018	inactive: 0.062	inactive: -0.042	inactive: -0.057	inactive: 0.108		inactive: 0.053	inactive: -0.086	inactive: -0.002	inactive: 0.025	inactive: 0.013		inactive: 0.19	inactive: 0.018	inactive: -0.076	inactive: -0.095	inactive: -0.065
SLC35C1 (UniProt Q96A29)	inactive: -0.019	inactive: 0.006	inactive: 0.116	inactive: 0.034	inactive: -0.042	inactive: -0.057				inactive: 0.044		inactive: -0.13	inactive: 0.142	inactive: 0.061		inactive: 0.114	inactive: -0.055	inactive: 0.093	inactive: 0.055	inactive: 0.157
SLC7A11 (UniProt Q9UPY5)	inactive: -0.019	inactive: 0.054	inactive: 0.029	inactive: 0.032	inactive: 0.013	inactive: -0.025	inactive: -0.091	inactive: 0.032	inactive: 0.072	inactive: -0.047	inactive: -0.041	inactive: 0.028	inactive: -0.059	inactive: -0.042	inactive: 0.101	inactive: 0.003	inactive: -0.043	inactive: -0.069	inactive: 0.014	inactive: 0.039
SLC25A44 (UniProt Q96H78)	inactive: 0.014	inactive: 0.015	inactive: 0.007	inactive: 0.002	inactive: 0.06	inactive: 0.307	inactive: 0.021	inactive: 0.17	inactive: -0.041	inactive: 0.062	inactive: -0.05	inactive: 0.007	inactive: -0.221	inactive: 0.064	inactive: 0.14	inactive: 0.015	inactive: -0.013		inactive: 0.099	
SLC35B1 isoform 2 (UniProt P78383)	inactive: 0.059	inactive: 0.024		inactive: 0.094	inactive: 0.148	inactive: -0.1	inactive: -0.227	inactive: 0.365	inactive: 0.007	inactive: 0.019	inactive: -0.375	inactive: -0.19	inactive: 0.061	inactive: 0.056	inactive: -0.002	inactive: 0	inactive: 0.047	inactive: 0.182	inactive: 0.006	inactive: -0.022
SLC39A11 (UniProt Q8N1S5)	inactive: -0.082	inactive: 0.073	inactive: -0.126	inactive: 0.067	inactive: 0.011	inactive: 0.028	inactive: -0.043	inactive: 0.147	inactive: -0.108	inactive: -0.009	inactive: -0.02	inactive: -0.065	inactive: 0.107	inactive: 0.338	inactive: -0.111	inactive: -0.059	inactive: -0.23	inactive: -0.047	inactive: 0.097	inactive: 0.059
SLC52A2 (UniProt Q9HAB3)	inactive: -0.102	inactive: -0.095	inactive: 0.038	inactive: -0.099	inactive: -0.119	inactive: 0.022	inactive: -0.144	inactive: 0.017	inactive: 0.031	inactive: 0.009	inactive: -0.027	inactive: 0.123	inactive: -0.01	inactive: -0.085	inactive: -0.019	inactive: 0.085	inactive: 0.038		inactive: 0.172	
SLC25A19 (UniProt Q9HC21)	inactive: -0.061	inactive: 0.019	inactive: 0.016	inactive: -0.027	inactive: 0.054	inactive: -0.026	inactive: -0.002	inactive: -0.035	inactive: 0.017	inactive: 0.027	inactive: 0.008	inactive: 0.055	inactive: 0.016	inactive: -0.036	inactive: 0.014	inactive: 0.038	inactive: 0.051	inactive: -0.026	inactive: -0.047	inactive: -0.037
SLC8B1 (UniProt Q6J4K2)	inactive: 0.167	inactive: 0.143			inactive: 0.003		inactive: -0.043	inactive: 0.126	inactive: -0.069		inactive: -0.038			inactive: 0.024	inactive: 0.152				inactive: -0.06	
SLC2A4 (UniProt P14672)	inactive: 0.056	inactive: 0.056	inactive: -0.04	inactive: 0.003	inactive: 0.045	inactive: -0.155	inactive: -0.04	inactive: 0.04	inactive: -0.028	inactive: 0.011	inactive: -0.035	inactive: 0.043	inactive: 0.014	inactive: -0.134	inactive: 0.096	inactive: 0.034	inactive: -0.028		inactive: -0.017	
SMAP2 (UniProt Q8WU79)	inactive: -0.043	inactive: 0.011	inactive: 0.013	inactive: 0.047	inactive: -0.02	inactive: 0.012	inactive: 0.043	inactive: -0.001	inactive: 0.044	inactive: -0.027	inactive: 0.017	inactive: -0.002	inactive: -0.058	inactive: 0.024	inactive: -0.086	inactive: 0.047	inactive: -0.037	inactive: -0.004	inactive: 0.01	inactive: -0.03
SLC38A7 (UniProt Q9NVC3)	inactive: 0.05	inactive: 0.022	inactive: -0.016	inactive: -0.066	inactive: 0.031		inactive: 0.039	inactive: 0.021	inactive: 0	inactive: -0.156	inactive: -0.069		inactive: -0.149	inactive: 0.022	inactive: 0.029	inactive: 0.03	inactive: -0.005	inactive: -0.013	inactive: -0.032	inactive: -0.06
SLC25A4 (UniProt P12235)	inactive: -0.026	inactive: 0.004	inactive: 0	inactive: -0.074	inactive: 0.059	inactive: 0.068	inactive: -0.006	inactive: 0.052	inactive: -0.021	inactive: -0.018	inactive: -0.088	inactive: -0.008	inactive: 0.028	inactive: -0.009	inactive: -0.016	inactive: 0.004	inactive: 0.108	inactive: 0.01	inactive: 0.012	inactive: 0.011
SLC35B3 (UniProt Q9H1N7)	inactive: 0.183	inactive: 0.025	inactive: 0.171		inactive: 0.058	inactive: -0.025	inactive: -0.023	inactive: 0.03	inactive: 0.08	inactive: 0	inactive: -0.043	inactive: 0.023	inactive: 0.024	inactive: 0.068	inactive: 0.073			inactive: 0.075	inactive: 0.073	inactive: 0.078
SLC30A6 isoform 2 (UniProt Q6NXT4)	inactive: -0.098	inactive: 0.018	inactive: 0.146	inactive: 0.105	inactive: 0.001	inactive: -0.03	inactive: -0.127	inactive: 0.063		inactive: -0.004	inactive: 0.023	inactive: 0.126	inactive: 0.016	inactive: 0.011		inactive: 0.003	active: -0.322	inactive: 0.003	inactive: -0.18	inactive: -0.005
SLC48A1 (UniProt Q6P1K1)	inactive: 0.056	inactive: 0.047	inactive: -0.021	inactive: 0.001	inactive: 0.12	inactive: 0.099	inactive: -0.15	inactive: 0.111	inactive: 0.056		inactive: -0.011	inactive: 0.005	inactive: -0.023	inactive: -0.047	inactive: -0.012	inactive: 0.021	inactive: 0.087	inactive: -0.293	inactive: 0.112	inactive: -0.104

Pulled one by one from above (two):
Target	log2 fold change (vemurafenib)	log2 fold change [1]	log2 fold change (barasertib)	log2 fold change [2]	log2 fold change (volasertib)	log2 fold change [3]	log2 fold change [4]	log2 fold change [5]	log2 fold change (saracatinib)	log2 fold change (sotrastaurin)	log2 fold change (alvocidib)	log2 fold change (Tubastatin A)	log2 fold change [6]	log2 fold change (defactinib)	log2 fold change [7]	log2 fold change (encorafenib)	log2 fold change [8]	log2 fold change (alisertib)	log2 fold change [9]	log2 fold change (gefitinib)
SLC25A19 (UniProt Q9HC21)	inactive: -0.061	inactive: 0.019	inactive: 0.016	inactive: -0.027	inactive: 0.054	inactive: -0.026	inactive: -0.002	inactive: -0.035	inactive: 0.017	inactive: 0.027	inactive: 0.008	inactive: 0.055	inactive: 0.016	inactive: -0.036	inactive: 0.014	inactive: 0.038	inactive: 0.051	inactive: -0.026	inactive: -0.047	inactive: -0.037
SLC25A44 (UniProt Q96H78)	inactive: 0.014	inactive: 0.015	inactive: 0.007	inactive: 0.002	inactive: 0.06	inactive: 0.307	inactive: 0.021	inactive: 0.17	inactive: -0.041	inactive: 0.062	inactive: -0.05	inactive: 0.007	inactive: -0.221	inactive: 0.064	inactive: 0.14	inactive: 0.015	inactive: -0.013		inactive: 0.099	
